# Measurements from PubChem BioAssay AID1259354 (Paczesny and Yang Labs, IUPUI and University of Michigan, 2018).
# Amino acid sequences for entries named in this document (tags omitted). A change or cut given only in a name is not applied to a line headed by its entry.
# UniProt Q01638: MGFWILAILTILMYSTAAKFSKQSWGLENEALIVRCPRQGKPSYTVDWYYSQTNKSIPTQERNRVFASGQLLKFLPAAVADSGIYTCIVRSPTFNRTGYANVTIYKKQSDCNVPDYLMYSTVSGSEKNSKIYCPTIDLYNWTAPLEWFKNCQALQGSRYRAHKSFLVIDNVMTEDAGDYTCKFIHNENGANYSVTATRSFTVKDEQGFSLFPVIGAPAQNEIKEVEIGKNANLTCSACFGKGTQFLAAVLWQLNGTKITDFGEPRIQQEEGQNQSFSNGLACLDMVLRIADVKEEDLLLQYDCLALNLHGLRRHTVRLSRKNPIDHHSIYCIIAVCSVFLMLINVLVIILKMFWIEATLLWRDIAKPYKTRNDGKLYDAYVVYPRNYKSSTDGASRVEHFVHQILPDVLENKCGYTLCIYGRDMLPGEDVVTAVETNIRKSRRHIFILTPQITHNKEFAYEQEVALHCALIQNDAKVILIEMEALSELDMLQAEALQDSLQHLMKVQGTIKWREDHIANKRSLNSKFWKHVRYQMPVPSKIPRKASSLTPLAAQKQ
# Where “and” joins values, the source holds several entries; their conditions need not be identical. Equal values may be shown once. The campaign covered roughly 78,000 compounds. About 1,800 (2.3%) were called active. This list was built around the results that the source calls inconclusive (neither active nor inactive); the mix of calls is not that of the screen. No stated cut-off is given here; in the data, active means inhibition above about 30%; inconclusive means mostly about 10% to 28%; inactive means weaker than that.
# Molecular target: Interleukin-1 receptor-like 1 (Homo sapiens) (UniProt Q01638)
# Assay: blocks human ST2 binding to IL-33, primary screen, biochemical, AlphaLISA (AID 1259354)
# Settings: AlphaLISA ST2-Fc/biotin-IL-33 interaction, 1 h; at 17 µM, stronger effect = higher value
row,Compound,inhibition
1,CC(=O)n1cc(CN2CCC3(CC2)C(=O)N(CCc2ccccc2)C(=O)N3C)c2ccccc21,inconclusive: 21%
2,COc1ccc(OCc2nc(C#N)c(NCc3ccco3)o2)cc1,inconclusive: 14%
3,Cc1ccc(OCCSc2nnnn2C2CCCCC2)cc1,inconclusive: 12%
4,Cc1cc(NC(=O)c2cnc3scc(C)n3c2=O)no1,inconclusive: 10%
5,Cc1cc(-c2nnc(-c3ccccc3)o2)ccc1[N+](=O)[O-],inconclusive: 11%
6,O=S(=O)(c1ccccc1)N1N=C(c2ccccc2)CC1c1ccc(Br)cc1 (centres undefined),inconclusive: 19%
7,CCCS(=O)(=O)N1CCCC(C(=O)NC2CC2)C1 (centres undefined),inactive
8,O=C(O)C(c1ccccc1)C(C(=O)O)c1ccccc1 (centres undefined),inconclusive: 11%
9,CN(Cc1nc2ccccc2[nH]1)C(=O)c1cn(Cc2cccc(C(F)(F)F)c2)nn1,inconclusive: 15%
10,CC(C)c1cc(C2CCN(C(=O)CN3CCOC3=O)CC2)[nH]n1,inconclusive: 11%
11,C=CCc1ccccc1OCCN(C)C(=O)c1occc1C,inactive
12,Cc1ccc(C(c2sc3nc(C)nn3c2O)N2CCN(c3ccc(F)cc3)CC2)cc1 (centres undefined),inconclusive: 13%
13,O=C(NC1CCCCCCC1)c1cc(=O)[nH]c2ccc(S(=O)(=O)N3CCCCC3)cc12,inactive
14,Cc1cc(C)cc(-n2ncc3c2CCCC3NC(=O)Cc2c[nH]c3ccccc23)c1 (centres undefined),inconclusive: 16%
15,COc1ccc(C(=O)N2CCC(C(=O)Nc3ccc(Br)cc3)CC2)cc1,inconclusive: 20%
16,COCc1ncc(CN2CCN(c3cc(C)nc(SC)n3)CC2)cn1,inconclusive: 19%
17,O=C(Nc1ccccn1)C1CCCN(S(=O)(=O)c2cnc[nH]2)C1 (centres undefined),inconclusive: 11%
18,COc1ccc(CN2CCN(Cc3ccc(OC)c(OC)c3)CC2)cc1,inconclusive: 16%
19,COCCN1C(=O)c2ccccc2C(C(=O)Nc2cc(C)ccn2)C1c1cn(C)c2ccccc12 (centres undefined),inconclusive: 10%
20,COc1ccc(NC(=O)c2ccc(-c3cccc4c3CCNC4)o2)cc1,inconclusive: 11%
21,CC(C)(C)NC(=O)CSc1nc2ccc(NC(=O)C3CCCCC3)cc2s1,inconclusive: 17%
22,O=C(Nc1ccccc1C(F)(F)F)c1cc2ccccc2o1,inconclusive: 12%
23,Cn1ncc2c(N3CCCN(C(=O)c4ccco4)CC3)nc(C(C)(C)C)nc21,inconclusive: 21%
24,O=c1oc2ccccc2c(O)c1C=Nc1nc2ccccc2s1,inconclusive: 11%

row,Compound,inhibition
1,Cc1cc(C)c(NC(=O)c2ccc(Cl)cc2Cl)c([N+](=O)[O-])c1,inconclusive: 10%
2,C=CCN(Cc1cnc(-c2cccc(C)c2)nc1)Cc1ccco1,inconclusive: 19%
3,COc1ccc(CN(C)C(=O)CCN2CCCCO2)c2cccnc12,inconclusive: 12%
4,COc1ccc(-c2nc(N(C)Cc3ccccc3)c3ccccc3n2)cc1OC,inactive
5,CCOC(=O)c1nc(Nc2cc(OC)cc(OC)c2)c2ccccc2n1,inconclusive: 13%
6,COc1cc(/C=C2/C(=O)N(c3ccc(Cl)c(Cl)c3)N=C2C)cc(Br)c1O,active: 37%
7,CCCc1c(C)nc2ncnn2c1Sc1ccccc1NC(=O)Nc1ccc(C)c(F)c1,inconclusive: 18%
8,C=CCc1cccc2cc(C(=O)Nc3cccc(C)c3C)c(=O)oc12,inconclusive: 13%
9,Cc1ccsc1S(=O)(=O)N1CCCC(O)(CN(C)C)CC1 (centres undefined),inactive
10,CC(C)Oc1ccc(C(=O)Nc2ccccc2Cl)cc1,inactive
11,O=C(C1=C(O)C(=O)N(CCCn2ccnc2)C1c1cccnc1)c1ccco1 (centres undefined),inconclusive: 14%
12,Cc1cccnc1Nc1nc(-c2ccc(O)cc2O)cs1,inconclusive: 29%
13,C/C=C(/C)C(=O)Oc1c(OC)c(OC)cc2c1-c1c(cc(OC)c(OC)c1OC)C[C@](C)(O)[C@@H](C)C2,inactive
14,CC(C)c1ccc(C2C(C#N)=C(N)SC(N)=C2C#N)cc1,inconclusive: 11%
15,COCC(C)NCc1ccc(-c2ccn[nH]2)cc1 (centres undefined),inconclusive: 13%
16,COc1ccc2cc(-c3[nH]ncc3CN3CCC(c4ccncc4)CC3)ccc2c1,inconclusive: 14%
17,O=C(CNCCCc1cccnc1)Nc1ccc(Cl)cc1F,inconclusive: 11%
18,O=C(CSc1nc2c(c(=O)n1-c1ccc(F)cc1)SCC2)OCc1ccccc1,inconclusive: 14%
19,CCN(CC)C(=O)c1ccc(Cl)c(NC(=O)C[C@@H]2C[C@@H]3C=C[C@H]2C3)c1,inactive
20,C=CCOc1ccc(C=Nc2cccc(Cl)c2C)c(O)c1,inconclusive: 24%
21,Cn1c(=O)cc(SCC(=O)N2CCN(c3ccc(F)cc3)CC2)c2ccc(Cl)cc21,inconclusive: 15%
22,CCOC(=O)Cn1c(=O)n(-c2ccc(C)c(C)c2)c2nc(-c3c(C)cc(C)cc3C)nc(C(N)=O)c21,inactive
23,CC1Cc2ccccc2N1S(=O)(=O)c1cccc2cccnc12 (centres undefined),inconclusive: 25%
24,COc1ccc(CCN2CCC(CN(C)Cc3cc(OC)ccc3F)CC2)cc1,inconclusive: 16%

# Shown bar-delimited: part of the list above
row | Compound | inhibition
3 | COc1ccc(CN(C)C(=O)CCN2CCCCO2)c2cccnc12 | inconclusive: 12%
8 | C=CCc1cccc2cc(C(=O)Nc3cccc(C)c3C)c(=O)oc12 | inconclusive: 13%
12 | Cc1cccnc1Nc1nc(-c2ccc(O)cc2O)cs1 | inconclusive: 29%
23 | CC1Cc2ccccc2N1S(=O)(=O)c1cccc2cccnc12 (centres undefined) | inconclusive: 25%

# Later entries

row,Compound,inhibition
1,COc1ccc(-c2nc3s/c(=C\c4ccc(N(C)C)cc4)c(=O)n3n2)cc1,inactive
2,CN1CCc2c(cc(O)c(O)c2Cl)C(c2cccc(Cl)c2)C1 (centres undefined),active: 39%
3,O=C(CCc1ccccc1)Nc1ccc(F)c(F)c1,inactive
4,CC(C)(C)c1ccc(/C=C/C(=O)NCc2cccnc2)cc1,inactive
5,CCN1C(=O)N(CCCc2cccnc2)C(=O)C12CCN(Cc1cn(C)c3ccccc13)CC2,inconclusive: 10%
6,CC1(C)CC(=O)C2=C(C1)OC(N)=C(C#N)C2c1ccc(-c2ccccc2Cl)o1 (centres undefined),inconclusive: 11%
7,CCCNC(=O)C1CC(=O)N(c2ccc(Br)cc2)C1 (centres undefined),inactive
8,C#Cc1cccc(C(=O)N2CC(=O)N(C3CCCCC3)CC(OCc3ccncc3)C2)c1 (centres undefined),inconclusive: 14%
9,CSc1nc(C(=O)N2CC(=O)N(Cc3cnn(C)c3)CC(OCc3cccnc3)C2)cs1 (centres undefined),inactive
10,CCOC(=O)C1C(=O)C=C(c2ccco2)CC1c1c(F)cccc1Cl (centres undefined),inactive
11,CCc1ccc(CN2CCCC(CNC(=O)c3ccncn3)C2)nc1 (centres undefined),inactive
12,COc1ccccc1C(=O)Nc1nc(-c2ccc(S(=O)(=O)N3CCOCC3)cc2)cs1,inconclusive: 15%
13,COc1ccc(Cl)cc1NC(=O)c1ccc([N+](=O)[O-])o1,inconclusive: 27%
14,CCOc1ccc2[nH]cc(C(=O)c3ccccc3)c(=O)c2c1,inactive
15,CCc1nc2sc(C)c(C)c2c(=O)n1CCO,inconclusive: 19%
16,COCCn1c(=O)[nH]c2cc(C(=O)NC3CC3)ccc2c1=O,inactive
17,COc1ccc2cc(C(N)=O)c(=Nc3ccc(C)cc3)oc2c1,inactive
18,CCC(C)c1ccc(OCCn2ccnc2)cc1 (centres undefined),inconclusive: 17%
19,CCCCNC(=O)CCC1N=C2c3ccccc3N=C(SCc3cccc(F)c3)N2C1=O (centres undefined),inconclusive: 13%
20,Cc1cn(CC(=O)N(Cc2ccsc2)CC(C)C)c(=O)[nH]c1=O,inconclusive: 12%
21,Nn1c(SCC(=O)NC23CC4CC(CC(C4)C2)C3)nnc1-c1ccc(Cl)cc1Cl,inactive
22,C=C(C)CSC1=C(C#N)C2(CCCCC2)C(C#N)C(=O)N1 (centres undefined),inconclusive: 15%
23,CCc1[nH]c2ccc(CNC(=O)c3ccn[nH]3)cc2c1C,inactive
24,N#Cc1nc2c(C#N)c(N)n(CC3CCCO3)c2nc1C#N (centres undefined),inconclusive: 11%

row,Compound,inhibition
1,Cc1cccnc1CN1CCN(Cc2c(C)nn(CCO)c2C)CC1,inactive
2,CCc1cc(N(C)CCCO)nc(N2CCCC2)n1,inconclusive: 13%
3,O=C(c1ccc(Cl)c(Cl)c1)N1CCCc2ccccc21,inconclusive: 10%
4,CCOC(=O)C1=C(C)OC(N)=C(C#N)C1c1cccc(O)c1 (centres undefined),inconclusive: 11%
5,CCc1cn[nH]c1C1CCN(C(=O)c2cccc(C#CC(C)(C)O)c2)CC1,inconclusive: 10%
6,N=c1ncn(Cc2ccccc2)c2nc(SCCO)[nH]c12,inconclusive: 14%
7,O=C(CCc1ccc(-c2ccc(Cl)cc2)[nH]1)N1CCCC(O)(CO)CC1 (centres undefined),inconclusive: 10%
8,Cc1ccccc1CNc1ncnc2c1ncn2C1OC(CO)C(O)C1O (centres undefined),inconclusive: 11%
9,Cc1nc2c(C(=O)NCCN(C)C)cnn2c(C)c1Cc1ccc(F)cc1,inactive
10,O=C(Nc1ccc(Cl)cc1)c1ccc([N+](=O)[O-])o1,inconclusive: 14%
11,O=C(NCCc1cccc(Cl)c1)c1ccc(Cl)cc1[N+](=O)[O-],inconclusive: 10%
12,Cc1cn(-c2nc(-c3ccccc3)oc2-c2ccccc2)c(=O)nc1NCCO,inactive
13,COc1ccccc1CNc1ccc2c(c1)ncn2-c1ccccc1,inconclusive: 20% and inconclusive: 15%
14,C(=C\c1ccccc1)/CN1CCN(C(c2ccccc2)c2ccccc2)CC1,inconclusive: 10%
15,O=C1c2ccccc2-c2nc3ncnn3c(-c3ccc(F)cc3)c21,inconclusive: 11%
16,O=C(NCc1ccccn1)C1CCN(S(=O)(=O)c2cccs2)CC1,inconclusive: 20%
17,COC(=O)c1cccc(C(=O)N(C)Cc2ccncc2C)c1,inconclusive: 12%
18,CC(C)c1cc(C2CCN(Cc3coc4ccccc4c3=O)CC2)[nH]n1,inactive
19,COCCNC(=O)C[C@@H]1O[C@H](CNC(=O)Nc2cccc(F)c2)[C@@H](O)[C@H]1O,inconclusive: 14%
20,COc1ccccc1CNC(=O)C1CCCN1S(=O)(=O)c1cc2c(cc1C)NC(=O)CO2 (centres undefined),inconclusive: 13%
21,Cn1ccnc1C(NC(=O)c1cn2c(n1)CNCC2)C1CC1 (centres undefined),inconclusive: 11%
22,CN1CCC(N2CCC[C@@H](O)[C@H](NC(=O)c3ccc(OCC(N)=O)cc3)C2)CC1,inconclusive: 11%
